Laboratory results from PubChem BioAssay AID588855 (National Center for Advancing Translational Sciences (NCATS), 2011).
The list shows a part of the results, in another mix than the full data. Records with an inconclusive call do not appear. Activity calls are given as the source filed them. Calls come from the whole dose curve; as a rule, active = well fitted inhibition curve with a large enough effect; inconclusive = small, poorly fitted or top-dose-only effect; inactive = no such curve, though single readings can be large or run the other way.

assay: qHTS for Inhibitors of TGF-b; conditions: HepG2 CAGA-GFP TGF-b/SMAD3 reporter, GFP fluorescence, 18 h; TGF-beta stimulated, 500 pg/mL final; note: nearly all actives have a fitted effect of over 65% in size
Description: TGF-b is a main component in the TGF-b signaling pathway which plays diverse roles in cellular and development pathways. TGF-b is the mediated by the transcription factors Smads. Although the Smad-dependent pathway is the primary canonical TGF-b signaling node, TGF-b1 can also activate alternative signaling pathways, including those involving MAPK (ERK, JNK and p38). This interaction may mediate or enhance Smad-dependent responses, or can exert Smad-independent effects. The complexity of this signaling cascade allows the TGF-b superfamily to perform unique, overlapping or redundant functions. […] We aim to identify Smad3-small molecule antagonists using a quantitative high throughput screening (qHTS) approach. […]
Suspensions of trypsinized HEPG2 CAGA-GFP cells were dispensed into white, tissue culture-treated, solid 1536-well plates at 5uL/well (1000 cells/well final concentration) in DMEM medium supplemented with 1% FBS. […] The plates were measured on an Acumen eX3 Explorer plate reader for GFP fluorescence (ex488/em500-530). GFP values were calculated by determining the mean GFP fluorescence of individual cells, and compiling these values for each well to determine a total well GFP signal. The %Activity was determined from the corrected fluorescence values. […]
Concentration-response curves were fitted to the signals arising from the resulting fluorescence. […]
Potency is the fitted concentration of half-maximal effect.

**Q.** Which Potency does the source give for `COc1c(O)cc2c(c1OC)-c1ccc(SC)c(=O)cc1C(NC(C)=O)CC2` (stereo unspecified) here?
**A.** The Potency was active: 199 nM.
